Assay results as given in patent US20170008927A1 (The University of Tokyo, priority 2014, published 2017).

Test: general procedure: Fmoc solid-phase peptide synthesis; Fmoc-L-Lys(Mtt)-Alko-PEG resin
Settings: whole synthesis, scale 0.10 mmol

## H-8DMAP-OH
  isolated mass: 192 mg
